Measured values as given in article PMC8599867.
No constants are given. Whether binding was seen depends on the method and setting. In cells and extracts the contact can be indirect. Some results given as binding are weak or reduced against the parent protein; the word gives no strength. For some assays here: Sequences can lack the tags named with a protein. Values belong to the molecule of their own block, whether it stands above or below them.

Amino acid sequences for entries named in this document (tags omitted).
UniProt Q13523: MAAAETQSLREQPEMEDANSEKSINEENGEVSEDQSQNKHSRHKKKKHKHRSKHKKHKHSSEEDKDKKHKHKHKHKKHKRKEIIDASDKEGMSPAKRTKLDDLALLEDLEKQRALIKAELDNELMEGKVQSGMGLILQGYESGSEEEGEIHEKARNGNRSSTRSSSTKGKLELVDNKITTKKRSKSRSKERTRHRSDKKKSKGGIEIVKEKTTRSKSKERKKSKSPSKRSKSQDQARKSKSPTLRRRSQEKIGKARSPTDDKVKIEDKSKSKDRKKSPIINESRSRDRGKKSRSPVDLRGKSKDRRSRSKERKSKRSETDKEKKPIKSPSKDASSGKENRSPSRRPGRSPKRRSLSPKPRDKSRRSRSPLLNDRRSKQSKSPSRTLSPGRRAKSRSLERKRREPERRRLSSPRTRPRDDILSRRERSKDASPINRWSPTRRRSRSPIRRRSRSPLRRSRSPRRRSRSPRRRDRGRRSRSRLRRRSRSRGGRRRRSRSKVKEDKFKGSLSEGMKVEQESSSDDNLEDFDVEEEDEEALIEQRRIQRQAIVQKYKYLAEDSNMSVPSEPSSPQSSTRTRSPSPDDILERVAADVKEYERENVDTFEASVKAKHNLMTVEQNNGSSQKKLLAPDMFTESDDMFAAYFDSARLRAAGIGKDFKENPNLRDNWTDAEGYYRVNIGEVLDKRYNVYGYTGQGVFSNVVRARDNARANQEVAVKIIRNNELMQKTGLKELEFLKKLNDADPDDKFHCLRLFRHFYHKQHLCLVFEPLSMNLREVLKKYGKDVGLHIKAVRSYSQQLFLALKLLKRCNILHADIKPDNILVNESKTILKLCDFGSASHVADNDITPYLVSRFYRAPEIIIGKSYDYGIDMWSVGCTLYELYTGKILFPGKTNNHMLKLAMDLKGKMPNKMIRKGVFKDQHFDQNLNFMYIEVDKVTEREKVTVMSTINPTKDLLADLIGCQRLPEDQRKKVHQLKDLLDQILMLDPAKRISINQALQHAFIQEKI
UniProt P38432: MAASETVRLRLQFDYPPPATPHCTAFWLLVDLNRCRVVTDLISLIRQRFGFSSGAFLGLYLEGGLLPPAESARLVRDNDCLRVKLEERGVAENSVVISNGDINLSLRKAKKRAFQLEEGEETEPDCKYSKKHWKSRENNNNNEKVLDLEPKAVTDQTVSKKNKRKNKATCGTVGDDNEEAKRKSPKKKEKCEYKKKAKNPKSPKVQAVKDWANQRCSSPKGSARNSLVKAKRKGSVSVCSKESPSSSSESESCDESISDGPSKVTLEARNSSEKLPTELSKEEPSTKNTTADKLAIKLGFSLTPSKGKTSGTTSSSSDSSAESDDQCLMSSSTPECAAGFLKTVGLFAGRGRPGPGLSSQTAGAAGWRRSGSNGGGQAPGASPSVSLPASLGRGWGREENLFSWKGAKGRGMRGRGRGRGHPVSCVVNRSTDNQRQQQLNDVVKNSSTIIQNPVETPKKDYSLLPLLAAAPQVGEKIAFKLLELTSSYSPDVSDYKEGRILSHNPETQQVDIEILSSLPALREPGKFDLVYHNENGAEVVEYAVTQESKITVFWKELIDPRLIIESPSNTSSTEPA
UniProt O75643: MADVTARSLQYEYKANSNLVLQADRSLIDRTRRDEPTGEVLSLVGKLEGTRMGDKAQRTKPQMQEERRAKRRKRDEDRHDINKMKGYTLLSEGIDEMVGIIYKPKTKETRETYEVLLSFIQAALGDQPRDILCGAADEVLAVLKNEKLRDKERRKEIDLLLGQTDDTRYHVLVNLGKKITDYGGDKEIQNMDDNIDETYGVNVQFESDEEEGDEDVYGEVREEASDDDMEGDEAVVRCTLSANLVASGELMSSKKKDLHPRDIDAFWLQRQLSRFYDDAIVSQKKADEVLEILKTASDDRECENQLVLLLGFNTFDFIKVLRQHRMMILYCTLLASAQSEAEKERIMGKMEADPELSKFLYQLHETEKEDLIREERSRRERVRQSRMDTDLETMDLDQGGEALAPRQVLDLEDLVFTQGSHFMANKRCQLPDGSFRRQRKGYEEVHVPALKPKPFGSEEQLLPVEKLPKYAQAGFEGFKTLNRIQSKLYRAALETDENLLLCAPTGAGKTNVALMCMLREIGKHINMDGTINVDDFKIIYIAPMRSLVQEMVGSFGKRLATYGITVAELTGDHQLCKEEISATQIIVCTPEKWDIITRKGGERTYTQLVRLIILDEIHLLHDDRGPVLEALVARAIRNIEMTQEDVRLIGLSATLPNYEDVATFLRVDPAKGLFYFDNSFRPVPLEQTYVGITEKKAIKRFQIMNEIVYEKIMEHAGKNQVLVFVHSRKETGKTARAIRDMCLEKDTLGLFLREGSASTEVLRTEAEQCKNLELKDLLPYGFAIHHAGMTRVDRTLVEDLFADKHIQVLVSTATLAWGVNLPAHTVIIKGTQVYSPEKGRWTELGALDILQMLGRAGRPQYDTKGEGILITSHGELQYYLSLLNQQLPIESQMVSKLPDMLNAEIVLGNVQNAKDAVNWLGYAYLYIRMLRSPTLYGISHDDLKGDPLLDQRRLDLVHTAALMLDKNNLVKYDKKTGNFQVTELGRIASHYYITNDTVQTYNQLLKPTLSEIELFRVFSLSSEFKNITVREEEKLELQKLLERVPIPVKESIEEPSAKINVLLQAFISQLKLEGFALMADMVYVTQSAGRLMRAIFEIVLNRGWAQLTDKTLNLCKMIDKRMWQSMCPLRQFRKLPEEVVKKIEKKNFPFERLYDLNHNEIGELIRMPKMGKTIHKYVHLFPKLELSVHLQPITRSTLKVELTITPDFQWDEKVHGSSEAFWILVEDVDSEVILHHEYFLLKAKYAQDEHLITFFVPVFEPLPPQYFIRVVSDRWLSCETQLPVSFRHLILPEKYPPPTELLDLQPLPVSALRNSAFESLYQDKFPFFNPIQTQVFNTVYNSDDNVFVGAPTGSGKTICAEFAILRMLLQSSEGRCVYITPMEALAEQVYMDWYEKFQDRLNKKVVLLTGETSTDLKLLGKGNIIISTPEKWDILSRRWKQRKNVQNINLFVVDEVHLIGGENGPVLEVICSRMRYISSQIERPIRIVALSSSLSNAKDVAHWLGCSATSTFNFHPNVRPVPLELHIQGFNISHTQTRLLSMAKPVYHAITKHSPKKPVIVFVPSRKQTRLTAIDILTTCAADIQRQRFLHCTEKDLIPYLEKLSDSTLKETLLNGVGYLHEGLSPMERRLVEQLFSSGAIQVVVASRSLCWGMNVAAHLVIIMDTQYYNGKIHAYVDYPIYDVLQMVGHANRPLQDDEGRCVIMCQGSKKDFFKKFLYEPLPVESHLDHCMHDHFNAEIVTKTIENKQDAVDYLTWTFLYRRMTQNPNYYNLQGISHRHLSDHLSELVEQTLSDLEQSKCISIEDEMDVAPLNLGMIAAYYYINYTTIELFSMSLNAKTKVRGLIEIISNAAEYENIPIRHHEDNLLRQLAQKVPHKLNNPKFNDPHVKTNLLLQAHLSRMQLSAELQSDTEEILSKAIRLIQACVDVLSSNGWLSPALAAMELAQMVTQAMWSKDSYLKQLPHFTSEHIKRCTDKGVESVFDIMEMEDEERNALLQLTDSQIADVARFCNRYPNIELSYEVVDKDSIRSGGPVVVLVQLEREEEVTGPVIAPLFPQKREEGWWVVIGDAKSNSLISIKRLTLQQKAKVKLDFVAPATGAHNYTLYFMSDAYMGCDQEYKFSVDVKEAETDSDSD

Columns and labels:
[1] = biological target: T1, TFIP11 (human (endogenous in HeLa)) (UniProt Q9UBB9); assay: co-IP; IP of endogenous TFIP11 from HeLa cell extracts in a high-salt concentration buffer (500 mM NaCl), western blotting for snRNP-specific proteins
T1 sequence: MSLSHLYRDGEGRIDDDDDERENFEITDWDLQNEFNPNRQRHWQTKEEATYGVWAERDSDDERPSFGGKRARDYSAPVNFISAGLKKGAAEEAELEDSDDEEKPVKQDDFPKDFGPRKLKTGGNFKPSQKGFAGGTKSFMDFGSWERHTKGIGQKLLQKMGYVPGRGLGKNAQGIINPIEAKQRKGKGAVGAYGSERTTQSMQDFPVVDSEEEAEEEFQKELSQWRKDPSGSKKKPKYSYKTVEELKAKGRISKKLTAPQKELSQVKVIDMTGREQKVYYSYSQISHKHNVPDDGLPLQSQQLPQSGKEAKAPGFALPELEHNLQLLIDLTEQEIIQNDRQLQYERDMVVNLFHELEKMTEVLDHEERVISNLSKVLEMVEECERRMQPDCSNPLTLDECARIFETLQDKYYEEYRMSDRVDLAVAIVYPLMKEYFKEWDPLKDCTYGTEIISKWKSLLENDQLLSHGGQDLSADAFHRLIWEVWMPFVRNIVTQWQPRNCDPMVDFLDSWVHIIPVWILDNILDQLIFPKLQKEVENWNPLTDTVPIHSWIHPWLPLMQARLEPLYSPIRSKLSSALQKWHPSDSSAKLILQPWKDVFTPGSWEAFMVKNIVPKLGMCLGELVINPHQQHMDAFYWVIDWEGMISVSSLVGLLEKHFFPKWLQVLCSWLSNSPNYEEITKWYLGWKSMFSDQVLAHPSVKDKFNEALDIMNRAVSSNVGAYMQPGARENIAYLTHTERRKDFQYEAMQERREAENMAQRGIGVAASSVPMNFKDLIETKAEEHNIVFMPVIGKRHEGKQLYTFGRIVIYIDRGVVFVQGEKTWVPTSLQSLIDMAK

[2] = biological target: T2, TFIP11-FLAG (human) (UniProt Q9UBB9); assay: co-IP; HeLa cells co-transfected with RFP-coilin and TFIP11-FLAG constructs; IP with anti-FLAG antibodies, western blotting
T2 sequence: T1 sequence

[3] = biological target: T3, fibrillarin (human (endogenous in HeLa)) (UniProt P22087); assay: co-IP; endogenous proteins from HeLa cells lysed in RIPA buffer, sonicated, diluted with 50 mM Tris-HCl pH 7.5, 150 mM NaCl; antibodies on agarose beads, 4 C overnight; IgG of the corresponding species as negative control; western blotting
T3 sequence: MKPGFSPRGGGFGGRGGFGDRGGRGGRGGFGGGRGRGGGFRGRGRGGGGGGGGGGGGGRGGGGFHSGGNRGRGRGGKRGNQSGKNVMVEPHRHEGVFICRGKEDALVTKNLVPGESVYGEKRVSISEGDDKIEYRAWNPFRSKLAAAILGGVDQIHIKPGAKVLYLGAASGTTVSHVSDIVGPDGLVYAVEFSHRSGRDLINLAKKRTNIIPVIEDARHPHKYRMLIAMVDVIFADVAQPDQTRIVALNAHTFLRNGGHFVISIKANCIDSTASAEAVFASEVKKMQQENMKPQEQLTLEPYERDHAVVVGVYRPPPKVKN

binding [1]: binds
B1: SART3 (protein, UniProt Q15020 1-963)
chain: MATAAETSASEPEAESKAGPKADGEEDEVKAARTRRKVLSRAVAAATYKTMGPAWDQQEEGVSESDGDEYAMASSAESSPGEYEWEYDEEEEKNQLEIERLEEQLSINVYDYNCHVDLIRLLRLEGELTKVRMARQKMSEIFPLTEELWLEWLHDEISMAQDGLDREHVYDLFEKAVKDYICPNIWLEYGQYSVGGIGQKGGLEKVRSVFERALSSVGLHMTKGLALWEAYREFESAIVEAARLEKVHSLFRRQLAIPLYDMEATFAEYEEWSEDPIPESVIQNYNKALQQLEKYKPYEEALLQAEAPRLAEYQAYIDFEMKIGDPARIQLIFERALVENCLVPDLWIRYSQYLDRQLKVKDLVLSVHNRAIRNCPWTVALWSRYLLAMERHGVDHQVISVTFEKALNAGFIQATDYVEIWQAYLDYLRRRVDFKQDSSKELEELRAAFTRALEYLKQEVEERFNESGDPSCVIMQNWARIEARLCNNMQKARELWDSIMTRGNAKYANMWLEYYNLERAHGDTQHCRKALHRAVQCTSDYPEHVCEVLLTMERTEGSLEDWDIAVQKTETRLARVNEQRMKAAEKEAALVQQEEEKAEQRKRARAEKKALKKKKKIRGPEKRGADEDDEKEWGDDEEEQPSKRRRVENSIPAAGETQNVEVAAGPAGKCAAVDVEPPSKQKEKAASLKRDMPKVLHDSSKDSITVFVSNLPYSMQEPDTKLRPLFEACGEVVQIRPIFSNRGDFRGYCYVEFKEEKSALQALEMDRKSVEGRPMFVSPCVDKSKNPDFKVFRYSTSLEKHKLFISGLPFSCTKEELEEICKAHGTVKDLRLVTNRAGKPKGLAYVEYENESQASQAVMKMDGMTIKENIIKVAISNPPQRKVPEKPETRKAPGGPMLLPQTYGARGKGRTQLSLLPRALQRPSAAAPQAENGPAAAPAVAAPAATEAPKMSNADFAKLFLRK

binding [3]: no binding
B2: TFIP11 (protein, UniProt Q9UBB9 1-837)
chain: T1 sequence

Further lines, the molecule ahead of its results:

Molecule: Prp4K (from UniProt Q13523 1-1007) (enzyme)
binding [1]: binds

Molecule: RFP-coilin (from UniProt P38432 1-576)
binding [2]: binds

Molecule: SNRNP200 (from UniProt O75643 1-2136) (enzyme)
binding [1]: binds
